Reference: article PMC8755797

The chains behind the UniProt entries cited, without tags or fusion partners. Where a name states a change or a piece, a line headed by the entry shows the natural chain unless it says otherwise. Residues count along the entry.
UniProt F4IDH5: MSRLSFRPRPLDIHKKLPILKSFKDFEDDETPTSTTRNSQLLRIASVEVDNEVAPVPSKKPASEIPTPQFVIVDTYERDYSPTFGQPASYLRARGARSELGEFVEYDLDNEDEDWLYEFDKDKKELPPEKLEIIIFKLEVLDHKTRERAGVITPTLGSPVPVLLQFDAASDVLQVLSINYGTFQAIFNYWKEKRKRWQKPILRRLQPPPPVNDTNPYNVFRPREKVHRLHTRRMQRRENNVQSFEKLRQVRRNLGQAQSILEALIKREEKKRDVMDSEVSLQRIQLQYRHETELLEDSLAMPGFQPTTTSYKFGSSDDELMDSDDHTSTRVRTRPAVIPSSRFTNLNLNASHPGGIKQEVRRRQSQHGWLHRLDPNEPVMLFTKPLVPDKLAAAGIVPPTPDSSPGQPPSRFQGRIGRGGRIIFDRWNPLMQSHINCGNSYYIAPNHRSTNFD
UniProt Q93YZ7, residues 62-491: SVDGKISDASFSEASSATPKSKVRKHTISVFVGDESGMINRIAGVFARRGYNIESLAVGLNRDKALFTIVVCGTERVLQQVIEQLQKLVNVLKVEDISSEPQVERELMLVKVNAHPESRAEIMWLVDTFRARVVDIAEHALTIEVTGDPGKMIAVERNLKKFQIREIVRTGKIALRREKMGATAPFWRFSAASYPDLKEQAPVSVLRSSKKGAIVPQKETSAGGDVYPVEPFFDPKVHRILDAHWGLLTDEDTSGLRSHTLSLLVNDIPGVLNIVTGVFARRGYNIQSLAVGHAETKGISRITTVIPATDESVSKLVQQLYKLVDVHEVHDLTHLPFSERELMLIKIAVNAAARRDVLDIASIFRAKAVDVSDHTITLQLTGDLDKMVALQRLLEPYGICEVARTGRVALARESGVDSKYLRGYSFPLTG
UniProt F4J7T3: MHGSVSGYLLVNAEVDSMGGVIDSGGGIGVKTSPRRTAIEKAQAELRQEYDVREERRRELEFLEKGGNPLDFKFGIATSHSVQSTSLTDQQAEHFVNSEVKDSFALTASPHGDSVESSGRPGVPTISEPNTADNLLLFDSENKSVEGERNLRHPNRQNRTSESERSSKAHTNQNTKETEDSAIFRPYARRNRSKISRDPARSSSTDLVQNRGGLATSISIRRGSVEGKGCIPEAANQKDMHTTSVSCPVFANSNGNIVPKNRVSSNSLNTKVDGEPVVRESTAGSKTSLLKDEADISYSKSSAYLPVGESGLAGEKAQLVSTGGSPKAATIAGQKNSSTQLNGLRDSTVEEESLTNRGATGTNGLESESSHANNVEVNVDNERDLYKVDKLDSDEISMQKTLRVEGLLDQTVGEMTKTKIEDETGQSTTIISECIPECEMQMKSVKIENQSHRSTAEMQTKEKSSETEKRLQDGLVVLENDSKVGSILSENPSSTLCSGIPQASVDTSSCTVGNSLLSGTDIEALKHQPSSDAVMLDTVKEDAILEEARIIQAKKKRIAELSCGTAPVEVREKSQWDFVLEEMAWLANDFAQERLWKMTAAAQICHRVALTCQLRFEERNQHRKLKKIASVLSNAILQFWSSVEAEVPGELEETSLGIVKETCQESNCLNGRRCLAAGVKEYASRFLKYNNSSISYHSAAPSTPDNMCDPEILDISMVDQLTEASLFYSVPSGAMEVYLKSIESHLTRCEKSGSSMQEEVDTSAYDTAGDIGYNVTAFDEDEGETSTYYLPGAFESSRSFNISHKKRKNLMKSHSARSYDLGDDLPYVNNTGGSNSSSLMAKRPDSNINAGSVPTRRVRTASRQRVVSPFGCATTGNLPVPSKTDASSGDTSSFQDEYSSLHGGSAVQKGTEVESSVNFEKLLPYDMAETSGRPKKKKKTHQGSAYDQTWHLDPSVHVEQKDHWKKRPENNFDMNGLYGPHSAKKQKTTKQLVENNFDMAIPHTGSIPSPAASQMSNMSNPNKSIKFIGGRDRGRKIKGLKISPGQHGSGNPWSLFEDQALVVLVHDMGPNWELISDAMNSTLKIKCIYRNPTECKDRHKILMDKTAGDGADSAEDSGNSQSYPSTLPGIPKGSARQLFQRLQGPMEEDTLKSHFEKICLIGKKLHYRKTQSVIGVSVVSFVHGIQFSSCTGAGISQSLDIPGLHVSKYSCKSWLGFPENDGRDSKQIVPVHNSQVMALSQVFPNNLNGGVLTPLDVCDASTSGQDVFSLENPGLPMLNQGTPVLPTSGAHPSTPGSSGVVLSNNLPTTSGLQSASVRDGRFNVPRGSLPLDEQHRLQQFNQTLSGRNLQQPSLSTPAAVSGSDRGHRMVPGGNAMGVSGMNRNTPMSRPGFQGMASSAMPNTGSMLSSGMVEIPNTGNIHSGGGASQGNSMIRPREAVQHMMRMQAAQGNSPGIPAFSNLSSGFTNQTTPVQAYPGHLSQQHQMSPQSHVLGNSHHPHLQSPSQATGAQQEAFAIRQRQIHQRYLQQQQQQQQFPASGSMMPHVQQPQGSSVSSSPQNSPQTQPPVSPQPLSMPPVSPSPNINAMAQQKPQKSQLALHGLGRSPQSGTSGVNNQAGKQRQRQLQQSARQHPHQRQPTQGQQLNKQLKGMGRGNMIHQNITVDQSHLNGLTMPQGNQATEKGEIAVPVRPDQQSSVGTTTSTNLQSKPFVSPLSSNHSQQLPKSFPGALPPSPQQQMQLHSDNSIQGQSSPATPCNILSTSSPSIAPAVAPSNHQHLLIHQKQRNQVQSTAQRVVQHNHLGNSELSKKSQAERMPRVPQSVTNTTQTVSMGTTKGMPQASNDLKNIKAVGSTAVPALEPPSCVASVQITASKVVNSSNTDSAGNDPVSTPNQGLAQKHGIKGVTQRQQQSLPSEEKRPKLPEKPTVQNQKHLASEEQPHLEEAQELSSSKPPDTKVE
UniProt F4J7T2: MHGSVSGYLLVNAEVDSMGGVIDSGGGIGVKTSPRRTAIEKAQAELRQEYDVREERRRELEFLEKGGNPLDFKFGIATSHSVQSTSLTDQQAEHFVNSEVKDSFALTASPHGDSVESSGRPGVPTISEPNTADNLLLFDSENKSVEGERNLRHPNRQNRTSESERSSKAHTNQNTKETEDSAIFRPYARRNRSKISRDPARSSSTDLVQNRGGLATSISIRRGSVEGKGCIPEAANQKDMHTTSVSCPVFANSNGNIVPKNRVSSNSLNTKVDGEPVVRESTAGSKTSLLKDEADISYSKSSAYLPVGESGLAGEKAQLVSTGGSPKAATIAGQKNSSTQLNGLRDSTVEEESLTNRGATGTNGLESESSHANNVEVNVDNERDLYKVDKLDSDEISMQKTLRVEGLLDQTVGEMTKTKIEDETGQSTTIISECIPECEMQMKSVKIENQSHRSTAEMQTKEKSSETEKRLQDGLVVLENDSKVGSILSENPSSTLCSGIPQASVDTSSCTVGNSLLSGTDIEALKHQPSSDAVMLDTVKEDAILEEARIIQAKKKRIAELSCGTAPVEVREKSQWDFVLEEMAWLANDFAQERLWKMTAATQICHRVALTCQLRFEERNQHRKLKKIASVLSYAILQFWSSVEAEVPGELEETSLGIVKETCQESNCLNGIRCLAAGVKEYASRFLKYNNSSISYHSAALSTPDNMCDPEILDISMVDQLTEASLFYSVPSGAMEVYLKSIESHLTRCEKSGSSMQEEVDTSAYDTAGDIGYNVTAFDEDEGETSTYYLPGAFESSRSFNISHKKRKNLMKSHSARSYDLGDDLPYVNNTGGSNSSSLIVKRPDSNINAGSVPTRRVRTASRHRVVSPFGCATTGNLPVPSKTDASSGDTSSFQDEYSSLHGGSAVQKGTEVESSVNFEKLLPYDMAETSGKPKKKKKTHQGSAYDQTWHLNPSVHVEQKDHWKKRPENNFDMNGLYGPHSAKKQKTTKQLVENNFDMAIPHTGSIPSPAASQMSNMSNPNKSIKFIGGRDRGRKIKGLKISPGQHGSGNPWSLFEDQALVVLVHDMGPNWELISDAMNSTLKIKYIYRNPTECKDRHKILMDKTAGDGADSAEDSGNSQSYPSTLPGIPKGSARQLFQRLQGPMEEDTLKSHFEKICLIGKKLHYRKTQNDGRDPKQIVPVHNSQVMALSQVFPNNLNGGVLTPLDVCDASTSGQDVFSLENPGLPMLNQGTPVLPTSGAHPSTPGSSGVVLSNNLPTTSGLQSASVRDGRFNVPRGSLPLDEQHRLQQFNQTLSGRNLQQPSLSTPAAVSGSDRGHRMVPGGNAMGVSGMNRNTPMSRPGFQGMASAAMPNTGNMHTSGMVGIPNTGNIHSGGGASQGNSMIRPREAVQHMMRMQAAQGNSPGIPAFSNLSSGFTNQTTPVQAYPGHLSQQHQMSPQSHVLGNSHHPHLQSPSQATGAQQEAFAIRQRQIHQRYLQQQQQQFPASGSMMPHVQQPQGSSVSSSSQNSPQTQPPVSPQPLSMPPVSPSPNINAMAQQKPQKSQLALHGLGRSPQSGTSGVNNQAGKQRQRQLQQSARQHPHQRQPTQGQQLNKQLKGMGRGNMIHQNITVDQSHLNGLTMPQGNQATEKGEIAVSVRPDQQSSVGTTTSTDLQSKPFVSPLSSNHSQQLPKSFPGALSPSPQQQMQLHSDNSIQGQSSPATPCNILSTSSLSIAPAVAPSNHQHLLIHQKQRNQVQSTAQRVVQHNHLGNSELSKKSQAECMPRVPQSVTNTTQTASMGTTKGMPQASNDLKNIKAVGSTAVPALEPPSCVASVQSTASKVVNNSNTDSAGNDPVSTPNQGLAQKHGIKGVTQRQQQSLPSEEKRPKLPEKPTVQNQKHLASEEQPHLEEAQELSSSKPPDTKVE
UniProt Q9FH40: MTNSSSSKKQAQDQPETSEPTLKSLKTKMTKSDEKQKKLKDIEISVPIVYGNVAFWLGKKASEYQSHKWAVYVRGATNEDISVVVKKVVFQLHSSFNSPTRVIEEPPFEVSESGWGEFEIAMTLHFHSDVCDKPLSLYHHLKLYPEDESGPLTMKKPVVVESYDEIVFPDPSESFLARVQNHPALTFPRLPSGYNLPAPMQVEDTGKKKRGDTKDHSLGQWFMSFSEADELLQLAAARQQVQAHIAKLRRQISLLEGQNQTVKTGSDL
UniProt F4JAM0: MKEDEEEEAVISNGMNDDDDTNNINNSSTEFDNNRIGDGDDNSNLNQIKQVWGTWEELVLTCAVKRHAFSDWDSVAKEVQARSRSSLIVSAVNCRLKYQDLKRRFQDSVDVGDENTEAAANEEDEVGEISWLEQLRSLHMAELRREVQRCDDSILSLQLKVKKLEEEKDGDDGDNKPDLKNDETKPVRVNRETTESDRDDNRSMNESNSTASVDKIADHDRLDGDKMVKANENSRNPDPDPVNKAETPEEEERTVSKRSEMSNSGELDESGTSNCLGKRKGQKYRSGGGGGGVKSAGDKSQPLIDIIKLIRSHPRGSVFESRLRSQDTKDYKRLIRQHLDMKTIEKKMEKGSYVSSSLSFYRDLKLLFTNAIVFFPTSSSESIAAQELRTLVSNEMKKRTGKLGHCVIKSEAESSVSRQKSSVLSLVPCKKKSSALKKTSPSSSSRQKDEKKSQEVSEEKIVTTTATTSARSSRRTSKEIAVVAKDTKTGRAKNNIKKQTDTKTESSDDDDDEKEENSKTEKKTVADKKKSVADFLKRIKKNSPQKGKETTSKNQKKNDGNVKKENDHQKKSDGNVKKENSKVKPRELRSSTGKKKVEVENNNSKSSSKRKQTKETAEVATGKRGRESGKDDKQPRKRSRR
UniProt Q9LXD7: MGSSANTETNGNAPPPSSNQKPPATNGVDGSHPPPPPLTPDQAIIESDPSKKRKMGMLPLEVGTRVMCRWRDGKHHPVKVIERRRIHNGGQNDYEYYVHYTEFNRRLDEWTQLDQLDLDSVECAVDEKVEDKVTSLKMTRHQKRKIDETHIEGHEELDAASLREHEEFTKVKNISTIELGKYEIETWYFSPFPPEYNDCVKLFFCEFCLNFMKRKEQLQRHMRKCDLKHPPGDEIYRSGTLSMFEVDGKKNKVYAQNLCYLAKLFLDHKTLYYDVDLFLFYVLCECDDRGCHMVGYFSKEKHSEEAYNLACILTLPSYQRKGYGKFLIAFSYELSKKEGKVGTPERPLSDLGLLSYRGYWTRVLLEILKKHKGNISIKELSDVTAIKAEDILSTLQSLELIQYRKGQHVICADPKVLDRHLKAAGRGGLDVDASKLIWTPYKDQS

B1: AtARP4 (protein, UniProt Q84M92 1-441)
chain: MYGGDEVSAIVVDLGSHTCKAGYAGEDAPKAVFPSVIGAVDGVEAMDVDVDSTKTNSNSEDSKTESEKEKSKRKLYVGSQAMSYRRDHMEVLSPIKDGIVSDWDLVDNIWEHAFKSCLMIDPTEHPMLLAEPPLNTQQQREKAAELMFEKYKVPALFMAKNPVLTSFATGRATSLVVDCGGGSTTISPVHDGYVLQKAVVSSPLGGEFLTDCLLKSLESKGIKIRPRYSFKRKEVRAGEFQVEDVDIPDTTESYKLFCQRMIVGDIKDSICRVPDTPYDDKSYSNIPTTSYELPDGQTLEIGADRFKVPDVMFNPSIVQTIPGMEKYAEMIPSVRGLPHMVMESINKCDVDIRRELYSSILLAGGTSSMQQLKERLEKDLIEESPHSARVKVLASGNTTERRFSVWIGGSILASLGSFQQMWFSKSEYEEHGASYIQRKCP
B2: AtSWC4 (protein, UniProt Q8VZL6 1-441)
chain: MGGTDAKDILGLPKTPLSLTQEKKSRPQKESHRKPDGISREVYALTGGVAPLMPSIDLKRRPPADEKVAWKWLSFTNSARKDDLQLYHWVRVVNDVPPTGDYSFAKYNKSVDILKYTDEEYENHLTDSVWTKEETDQLFEFCQNFDLRFVVIADRFPVSRTVEELKDRYYSVNRALLRARAQSPADVANHPLMKEPYDITRDRERKRALSMVLSQSRHQEKKDAEILAEAKRITEMRLAARRAEEPDVSANENAGLDKADGVVPGRSVSPTSNSQLPATAVAPSTLTMADYASTLASLRMLHVYLRTYGLEQMVQAASSAVGLRTIKRVEQTLQDLGVNLKPKVPTKTVCDEHLELRKEILTLLNLQKQLQYKESEGSSHREGSYAAMPDTPKDRVFAPDPFSFGAERPIKKEQKRKGPGRQADTPSPAHKRPRKLKASDL
B3: HAM1 (enzyme, UniProt Q9FLF7 1-445)
chain: MGSSADTETAMIIATPASNHNNPATNGGDANQNHTSGAILALTNSESDASKKRRMGVLPLEVGTRVMCQWRDGKYHPVKVIERRKNYNGGHNDYEYYVHYTEFNRRLDEWIKLEQLDLDSVECALDEKVEDKVTSLKMTRHQKRKIDETHVEGHEELDAASLREHEEFTKVKNIATIELGKYEIETWYFSPFPPEYNDCVKLFFCEFCLSFMKRKEQLQRHMRKCDLKHPPGDEIYRSSTLSMFEVDGKKNKVYAQNLCYLAKLFLDHKTLYYDVDLFLFYILCECDDRGCHMVGYFSKEKHSEEAYNLACILTLPPYQRKGYGKFLIAFSYELSKKEGKVGTPERPLSDLGLVSYRGYWTRILLDILKKHKGNISIKELSDMTAIKAEDILSTLQSLELIQYRKGQHVICADPKVLDRHLKAAGRGGLDVDVSKMIWTPYKEQS
B4: AtING2 (protein, UniProt B3H615 1-262)
chain: MAIARTGVYVDDYLEYASTFPAELQRLLNTVRELDERSQSLINQTRQQTKYCLGLASQSSKKGNGNHYNNGGLDEEETIEKMRKEIESSQENALSLCTEKVLLARQAYDLIDSHVKRLDEDLNNFAEDLKQEGKIPPDEPSVLPPLPIVPKAEKRKSFYGTPQPKKIDYRDRDWDRDRDFELMPPPGSNRKDLMPIEEQPIDPNEPTYCVCHQVSFGDMIACDNENCQGGEWFHYTCVGLTPETRFKGKWYCPTCRLLPQSH
B5: MRG1 (protein, UniProt Q94C32 1-320)
chain: MGSSSKEETASDGDTASGGASPSNDGRLFSEGERVLAYHGPRVYGAKVQKVELRKKEWKYFVHYLGWNKNWDEWVSADRLLKHTEENLVKQKALDKKQGVEKGTKSGRSAQTKTRSSADTKADKDDTKTNAAKGKKRKHESGNEKDNVTAEKLMKIQIPASLKKQLTDDWEYIAQKDKVVKLPRSPNVDEILSKYLEFKTKKDGMVTDSVAEILKGIRSYFDKALPVMLLYKKERRQYQESIVDDTSPSTVYGAEHLLRLFVKLPDLFSYVNMEEETWSRMQQTLSDFLKFIQKNQSTFLLPSAYDSDKVSDGKGKGKDD
B6: GATB (protein, UniProt Q9FV81 1-550)
chain: MSTTLLRTIQLNQFSLLGTSLLRRRRSNNFSVRSCGSQTTTTHEAKQSSPTRVAPKNHKSNQLDEILRDYEAVIGIETHVQLSTLTKAFCSCSNNYGSYPNTSICPVCMGLPGALPVLNSKVVEFGVRLGLALNCDLSLKSKFDRKQYFYPDLPKGYQISQFDIPIASGGYVDVDIPLEFGGGHRRFGITRVHMEEDAGKLLHSDTGDYSQVDLNRAGVPLLEIVSEPDMRSGIEAAEYACEMQRIARYLGVSNGNMQEGSLRCDVNISIRPIGQAEFGTKVEIKNLNAFSAISRAIDFEISRQALLYNQGKADQIVTETRLWEEGAQKTVTMRKKEGLADYRYFPEPDLPEVILTQEYVDSIRASLPELPEAKRRRYEAMGLGMQDVLFLANDVSVAEYFDAVIGKGAEVKLAANWIMSDIAAYLKNEKLSINDIKLTPQELAELIAAIKDGTISGKIGKEILFELLAKGGTVKGMIKAKDLVQITDPAEIEKMVIQVVSENPKQLEQYRSGKTKLQGYFAGQVMKMSKGKANPGLLNKILLEKLNAKD
B7: UGD1 (protein, UniProt Q9FZE1 1-481)
chain: MVKICCIGAGYVGGPTMAVMALKCPEIEVVVVDISEPRINAWNSDRLPIYEPGLEDVVKQCRGKNLFFSTDVEKHVFESDIVFVSVNTPTKTQGLGAGKAADLTYWESAARMIADVSKSSKIVVEKSTVPVRTAEAIEKILTHNSKGIEFQILSNPEFLAEGTAIKDLYNPDRVLIGGRDTAAGQKAIKALRDVYAHWVPVEQIICTNLWSAELSKLAANAFLAQRISSVNAMSALCEATGADVTQVAHAVGTDTRIGPKFLNASVGFGGSCFQKDILNLIYICECNGLPEAANYWKQVVKVNDYQKIRFANRVVSSMFNTVSGKKIAILGFAFKKDTGDTRETPAIDVCNRLVADKAKLSIYDPQVLEEQIRRDLSMARFDWDHPVPLQQIKAEGISEQVNVVSDAYEATKDAHGLCVLTEWDEFKSLDFKKIFDNMQKPAFVFDGRNVVDAVKLREIGFIVYSIGKPLDSWLKDMPAVA

Target: AtEPL1B-TAP (A. thaliana) (UniProt F4IDH5)
Assay: affinity purification with mass spectrometry; tandem affinity purification via the C-terminal GSrhino tag of AtEPL1B from 50 g of 6-day-old hydroponically grown seedlings (Atepl1-1 with pAtEPL1B::AtEPL1B-TAP); on-bead digest, Q Exactive; two experiments

Row | Molecule | binding
1 | AHASS1 (from UniProt Q93YZ7 62-491) | binds
2 | AtEAF1A (from UniProt F4J7T3 1-1957) | binds
3 | AtEAF1B (from UniProt F4J7T2 1-1907) | binds
4 | AtTRA1A (from UniProt F4IPJ1) | binds
5 | AtYAF9A (from UniProt Q9FH40) | binds
6 | BRD6 (from UniProt F4JAM0) | binds
7 | HAM2 (from UniProt Q9LXD7 1-445) (enzyme) | binds
8 | B1 | binds
9 | B2 | binds
10 | B3 | binds
11 | B4 | binds
12 | B5 | binds
13 | B6 | binds
14 | B7 | binds

These are yes or no findings as the source states them, for the method shown. Binding seen in cells or lysates may run through a third protein. These calls come from enrichment with a bait or labelling near it, and not all partners need be listed.
